Measured values taken from the supplement of paper PMC8256030.
“And” between values parts separate entries of the source, which are not always exact repeats. Equal values may be shown once. Some of the results follow. Repeats in this data set agree poorly, so a single value says little.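 HEK293T cells were given each compound shortly before transfection with a reporter in which red mCherry is followed by the SARS-CoV-2 frameshift element and then GFP in the −1 frame, so GFP appears only after frameshifting.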

System: HEK293T
Test: percent viability (nuclei count) relative to control; higher = more viable cells
Conditions: 10 µM; 24 h

Compound	percent viability
CCN(CC)CCC(=O)N1c2ccccc2Sc2ccc(C(F)(F)F)cc21 [fluacizine]	209%
CC(=O)c1cc2cccc(OCC(O)CNC(C)C)c2o1 (centres undefined) [befunolol]	349%
Cc1cc(S(=O)(=O)O)c2c(C)ccc(C(C)C)cc1-2 [sodium gualenate]	140%
Nc1ccc(S(=O)(=O)Nc2ccccc2)cc1 [sulfabenz]	45.8%
Cc1cc(C)cc(OCC2CNC(=O)O2)c1 (centres undefined) [metaxalone]	276%
CN[C@@H]1[C@H](O[C@H]2[C@H](O[C@H]3[C@H](O)[C@@H](O)[C@H](N=C(N)N)[C@@H](O)[C@@H]3N=C(N)N)O[C@@H](C)[C@]2(O)CO)O[C@@H](CO)[C@H](O)[C@H]1O	201%
CCOC(=O)c1ccc(C#Cc2ccc3c(c2)C(C)(C)CCS3)nc1 [tazarotene]	181%
Cc1onc(NS(=O)(=O)c2ccccc2-c2ccc(-c3ncco3)cc2CN(C)C(=O)CC(C)(C)C)c1C [edonentan]	134%
O=C(Nc1c(Cl)cncc1Cl)c1ccc(OC(F)F)c(OCC2CC2)c1 [roflumilast]	233%
c1ccc(C2CN3CCSC3=N2)cc1 (centres undefined)	14.3%
Cc1cccc(N(C)C(=S)Oc2ccc3ccccc3c2)c1 [tolnaftate]	266%
O=C(C1CCCCC1)N1CC(=O)N2CCc3ccccc3C2C1 (centres undefined) [praziquantel]	234% and 167%
C[C@H]1CN(C[C@H](Cc2ccccc2)C(=O)NCC(=O)O)CC[C@@]1(C)c1cccc(O)c1 [alvimopan]	134%
O=S(=O)(c1cccc2cnccc12)N1CCCNCC1	402% and 380%
